# Test results: the supplement of paper PMC8728848
# Some of the results follow.
# B1: DC-Sign-R (Homo sapiens), Q9H2X3 (protein)
# chain: MSDSKEPRVQQLGLLEEDPTTSGIRLFPRDFQFQQIHGHKSSTGCLGHGALVLQLLSFMLLAGVLVAILVQVSKVPSSLSQEQSEQDAIYQNLTQLKAAVGELSEKSKLQEIYQELTQLKAAVGELPEKSKLQEIYQELTRLKAAVGELPEKSKLQEIYQELTRLKAAVGELPEKSKLQEIYQELTRLKAAVGELPEKSKLQEIYQELTELKAAVGELPEKSKLQEIYQELTQLKAAVGELPDQSKQQQIYQELTDLKTAFERLCRHCPKDWTFFQGNCYFMSNSQRNWHDSVTACQEVRAQLVVIKTAEEQNFLQLQTSRSNRFSWMGLSDLNQEGTWQWVDGSPLSPSFQRYWNSGEPNNSGNEDCAEFSGSGWNDNRCDVDNYWICKKPAACFRDE
# What was measured:
# Assay in all cases: glycan array binding signal (z-score within array); higher = stronger binding
# Conditions in all cases: glycan notation: IUPAC condensed, linker removed
# [1] = molecular target: Neu5Ac(a2-3)Gal6S(b1-4)[Fuc(a1-3)]GlcNAc
# Outline: (§1)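 Negative Z-scores can be read as non-binding. The Z-score is calculated within each array and then averaged across arrays of one protein sequence at different concentrations or buffers and across linkers. Arrays, 3228 in all, were curated from the Consortium for Functional Glycomics database and kept only where the protein sequence was available.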
# [2] = molecular target: Neu5Ac(a2-3)GalNAc
# Outline: as §1
# [3] = molecular target: Neu5Ac(a2-3)GalNAc(b1-4)GlcNAc
# Outline: as §1
# [4] = molecular target: Neu5Ac(a2-3)[GalNAc(b1-4)]Gal(b1-4)Glc
# Outline: as §1
# [5] = molecular target: Neu5Ac(a2-3)[GalNAc(b1-4)]Gal(b1-4)GlcNAc
# Outline: as §1
# [6] = molecular target: Neu5Ac(a2-3)[GalNAc(b1-4)]Gal(b1-4)GlcNAc(b1-3)GalNAc
# Outline: as §1
# [7] = molecular target: Neu5Ac(a2-3)[Neu5Ac(a2-6)]GalNAc
# Outline: as §1
# [8] = molecular target: Neu5Ac(a2-6)Gal
# Outline: as §1
# [9] = molecular target: Neu5Ac(a2-6)Gal(b1-3)GlcNAc(b1-3)[Gal(b1-4)GlcNAc(b1-6)]Gal(b1-4)Glc
# Outline: as §1
# [10] = molecular target: Neu5Ac(a2-6)Gal(b1-4)Glc
# Outline: as §1
# [11] = molecular target: Neu5Ac(a2-6)Gal(b1-4)GlcNAc
# Outline: as §1
# [12] = molecular target: Neu5Ac(a2-6)Gal(b1-4)GlcNAc(b1-2)Man
# Outline: as §1
# [13] = molecular target: Neu5Ac(a2-6)Gal(b1-4)GlcNAc(b1-2)Man(a1-3)Man(b1-4)GlcNAc(b1-4)GlcNAc
# Outline: as §1
# [14] = molecular target: Neu5Ac(a2-6)Gal(b1-4)GlcNAc(b1-2)Man(a1-3)[Gal(b1-4)GlcNAc(b1-2)Man(a1-6)]Man(b1-4)GlcNAc(b1-4)GlcNAc
# Outline: as §1
# [15] = molecular target: Neu5Ac(a2-6)Gal(b1-4)GlcNAc(b1-2)Man(a1-3)[GlcNAc(b1-2)Man(a1-6)]Man(b1-4)GlcNAc(b1-4)GlcNAc
# Outline: as §1
# [16] = molecular target: Neu5Ac(a2-6)Gal(b1-4)GlcNAc(b1-2)Man(a1-3)[GlcNAc(b1-4)][Neu5Ac(a2-6)Gal(b1-4)GlcNAc(b1-2)Man(a1-6)]Man(b1-4)GlcNAc(b1-4)GlcNAc
# Outline: as §1
# [17] = molecular target: Neu5Ac(a2-6)Gal(b1-4)GlcNAc(b1-2)Man(a1-3)[Man(a1-6)]Man(b1-4)GlcNAc(b1-4)GlcNAc
# Outline: as §1
# [18] = molecular target: Neu5Ac(a2-6)Gal(b1-4)GlcNAc(b1-2)Man(a1-3)[Neu5Ac(a2-3)Gal(b1-4)GlcNAc(b1-2)Man(a1-6)]Man(b1-4)GlcNAc(b1-4)GlcNAc
# Outline: as §1
# [19] = molecular target: Neu5Ac(a2-6)Gal(b1-4)GlcNAc(b1-2)Man(a1-3)[Neu5Ac(a2-6)Gal(b1-4)GlcNAc(b1-2)Man(a1-6)]Man(b1-4)GlcNAc(b1-4)GlcNAc
# Outline: as §1
# [20] = molecular target: Neu5Ac(a2-6)Gal(b1-4)GlcNAc(b1-2)Man(a1-3)[Neu5Ac(a2-6)Gal(b1-4)GlcNAc(b1-2)Man(a1-6)]Man(b1-4)GlcNAc(b1-4)[Fuc(a1-6)]GlcNAc
# Outline: as §1
# [21] = molecular target: Neu5Ac(a2-6)Gal(b1-4)GlcNAc(b1-2)Man(a1-6)Man(b1-4)GlcNAc(b1-4)GlcNAc
# Outline: as §1
# [22] = molecular target: Neu5Ac(a2-6)Gal(b1-4)GlcNAc(b1-2)Man(a1-6)[Gal(b1-4)GlcNAc(b1-2)Man(a1-3)]Man(b1-4)GlcNAc(b1-4)GlcNAc
# Outline: as §1
# [23] = molecular target: Neu5Ac(a2-6)Gal(b1-4)GlcNAc(b1-2)Man(a1-6)[GlcNAc(b1-2)Man(a1-3)]Man(b1-4)GlcNAc(b1-4)GlcNAc
# Outline: as §1
# [24] = molecular target: Neu5Ac(a2-6)Gal(b1-4)GlcNAc(b1-2)Man(a1-6)[Man(a1-3)]Man(b1-4)GlcNAc(b1-4)GlcNAc
# Outline: as §1
# [25] = molecular target: Neu5Ac(a2-6)Gal(b1-4)GlcNAc(b1-2)[Neu5Ac(a2-6)Gal(b1-4)GlcNAc(b1-4)]Man(a1-3)[GlcNAc(b1-4)][Neu5Ac(a2-6)Gal(b1-4)GlcNAc(b1-2)[Neu5Ac(a2-6)Gal(b1-4)GlcNAc(b1-6)]Man(a1-6)]Man(b1-4)GlcNAc(b1-4)GlcNAc
# Outline: as §1
# [26] = molecular target: Neu5Ac(a2-6)Gal(b1-4)GlcNAc(b1-2)[Neu5Ac(a2-6)Gal(b1-4)GlcNAc(b1-4)]Man(a1-3)[GlcNAc(b1-4)][Neu5Ac(a2-6)Gal(b1-4)GlcNAc(b1-4)Man(a1-6)]Man(b1-4)GlcNAc(b1-4)GlcNAc
# Outline: as §1
# [27] = molecular target: Neu5Ac(a2-6)Gal(b1-4)GlcNAc(b1-2)[Neu5Ac(a2-6)Gal(b1-4)GlcNAc(b1-6)]Man(a1-6)[Neu5Ac(a2-6)Gal(b1-4)GlcNAc(b1-2)Man(a1-3)][GlcNAc(b1-4)]Man(b1-4)GlcNAc(b1-4)GlcNAc
# Outline: as §1
# [28] = molecular target: Neu5Ac(a2-6)Gal(b1-4)GlcNAc(b1-3)Gal(b1-3)GlcNAc
# Outline: as §1
# [29] = molecular target: Neu5Ac(a2-6)Gal(b1-4)GlcNAc(b1-3)Gal(b1-4)GlcNAc
# Outline: as §1
# [30] = molecular target: Neu5Ac(a2-6)Gal(b1-4)GlcNAc(b1-3)Gal(b1-4)GlcNAc(b1-2)Man(a1-3)[Neu5Ac(a2-6)Gal(b1-4)GlcNAc(b1-3)Gal(b1-4)GlcNAc(b1-2)Man(a1-6)]GalNAc
# Outline: as §1
# [31] = molecular target: Neu5Ac(a2-6)Gal(b1-4)GlcNAc(b1-3)Gal(b1-4)GlcNAc(b1-3)Gal(b1-4)GlcNAc
# Outline: as §1
# [32] = molecular target: Neu5Ac(a2-6)Gal(b1-4)GlcNAc(b1-3)Gal(b1-4)GlcNAc(b1-3)Gal(b1-4)GlcNAc(b1-2)Man(a1-3)[Neu5Ac(a2-6)Gal(b1-4)GlcNAc(b1-3)Gal(b1-4)GlcNAc(b1-3)Gal(b1-4)GlcNAc(b1-2)Man(a1-6)]GalNAc
# Outline: as §1
# [33] = molecular target: Neu5Ac(a2-6)Gal(b1-4)GlcNAc(b1-3)Gal(b1-4)GlcNAc(b1-3)GalNAc
# Outline: as §1
# [34] = molecular target: Neu5Ac(a2-6)Gal(b1-4)GlcNAc(b1-3)Gal(b1-4)GlcNAc(b1-3)[Neu5Ac(a2-6)Gal(b1-4)GlcNAc(b1-3)Gal(b1-4)GlcNAc(b1-6)]GalNAc
# Outline: as §1
# [35] = molecular target: Neu5Ac(a2-6)Gal(b1-4)GlcNAc(b1-3)Gal(b1-4)GlcNAc(b1-6)[Gal(b1-3)]GalNAc
# Outline: as §1
# [36] = molecular target: Neu5Ac(a2-6)Gal(b1-4)GlcNAc(b1-3)Gal(b1-4)[Fuc(a1-3)]GlcNAc(b1-3)Gal(b1-4)[Fuc(a1-3)]GlcNAc
# Outline: as §1
# [37] = molecular target: Neu5Ac(a2-6)Gal(b1-4)GlcNAc(b1-3)GalNAc
# Outline: as §1
# [38] = molecular target: Neu5Ac(a2-6)Gal(b1-4)GlcNAc(b1-3)[Neu5Ac(a2-6)Gal(b1-4)GlcNAc(b1-6)]GalNAc
# Outline: as §1
# [39] = molecular target: Neu5Ac(a2-6)Gal(b1-4)GlcNAc(b1-6)GalNAc
# Outline: as §1
# [40] = molecular target: Neu5Ac(a2-6)Gal(b1-4)GlcNAc(b1-6)[Gal(b1-3)GlcNAc(b1-3)]Gal(b1-4)Glc
# Outline: as §1
# [41] = molecular target: Neu5Ac(a2-6)Gal(b1-4)GlcNAc(b1-6)[Gal(b1-3)]GalNAc
# Outline: as §1
# [42] = molecular target: Neu5Ac(a2-6)Gal(b1-4)GlcNAc6S
# Outline: as §1
# [43] = molecular target: Neu5Ac(a2-6)GalNAc
# Outline: as §1
# [44] = molecular target: Neu5Ac(a2-6)GalNAc(b1-4)GlcNAc
# Outline: as §1
# [45] = molecular target: Neu5Ac(a2-6)GalNAc(b1-4)GlcNAc6S
# Outline: as §1
binder,measurement,setting,value
B1,glycan array binding signal (z-score),[1],-0.433
same,glycan array binding signal (z-score),[2],-0.639
same,glycan array binding signal (z-score),[3],0.032
same,glycan array binding signal (z-score),[4],0.865
same,glycan array binding signal (z-score),[5],0.02
same,glycan array binding signal (z-score),[6],0.434
same,glycan array binding signal (z-score),[7],0.964
same,glycan array binding signal (z-score),[8],-0.222
same,glycan array binding signal (z-score),[9],-0.84
same,glycan array binding signal (z-score),[10],-0.112
same,glycan array binding signal (z-score),[11],0.316
same,glycan array binding signal (z-score),[12],-0.243
same,glycan array binding signal (z-score),[13],-0.7
same,glycan array binding signal (z-score),[14],0.079
same,glycan array binding signal (z-score),[15],-0.808
same,glycan array binding signal (z-score),[16],0.035
same,glycan array binding signal (z-score),[17],-0.407
same,glycan array binding signal (z-score),[18],0.166
same,glycan array binding signal (z-score),[19],-0.099
same,glycan array binding signal (z-score),[20],-0.156
same,glycan array binding signal (z-score),[21],-0.883
same,glycan array binding signal (z-score),[22],-0.77
same,glycan array binding signal (z-score),[23],-0.522
same,glycan array binding signal (z-score),[24],-0.78
same,glycan array binding signal (z-score),[25],3.11
same,glycan array binding signal (z-score),[26],2.25
same,glycan array binding signal (z-score),[27],-0.177
same,glycan array binding signal (z-score),[28],-0.679
same,glycan array binding signal (z-score),[29],-0.464
same,glycan array binding signal (z-score),[30],4.44
same,glycan array binding signal (z-score),[31],-0.326
same,glycan array binding signal (z-score),[32],2.81
same,glycan array binding signal (z-score),[33],2.11
same,glycan array binding signal (z-score),[34],0.528
same,glycan array binding signal (z-score),[35],-0.577
same,glycan array binding signal (z-score),[36],0.007
same,glycan array binding signal (z-score),[37],1.5
same,glycan array binding signal (z-score),[38],-0.32
same,glycan array binding signal (z-score),[39],-0.471
same,glycan array binding signal (z-score),[40],0.956
same,glycan array binding signal (z-score),[41],1.1
same,glycan array binding signal (z-score),[42],-0.111
same,glycan array binding signal (z-score),[43],-0.552
same,glycan array binding signal (z-score),[44],0.35
same,glycan array binding signal (z-score),[45],-0.428

# Some of the entries so far, as tab-separated lines:
binder	measurement	setting	value
B1	glycan array binding signal (z-score)	[6]	0.434
same	glycan array binding signal (z-score)	[7]	0.964
same	glycan array binding signal (z-score)	[8]	-0.222
same	glycan array binding signal (z-score)	[9]	-0.84
same	glycan array binding signal (z-score)	[10]	-0.112
same	glycan array binding signal (z-score)	[11]	0.316
same	glycan array binding signal (z-score)	[12]	-0.243
same	glycan array binding signal (z-score)	[13]	-0.7
same	glycan array binding signal (z-score)	[14]	0.079
same	glycan array binding signal (z-score)	[15]	-0.808
